Here are results for 9 targets from the supplement of paper PMC10849652.

Protein sequences, listed by entry. Tags and fused reporters are not part of them. Lines headed by an entry give the natural chain unless they say otherwise; changes in a name come on top.
UniProt Q9BW60: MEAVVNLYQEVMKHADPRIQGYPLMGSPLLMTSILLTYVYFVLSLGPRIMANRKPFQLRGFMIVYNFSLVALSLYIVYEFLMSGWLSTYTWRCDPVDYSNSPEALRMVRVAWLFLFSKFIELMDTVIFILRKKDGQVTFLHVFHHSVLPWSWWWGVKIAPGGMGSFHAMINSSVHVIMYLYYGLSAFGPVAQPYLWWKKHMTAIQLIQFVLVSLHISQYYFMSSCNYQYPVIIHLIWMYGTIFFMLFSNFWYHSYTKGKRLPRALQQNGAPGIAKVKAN
UniProt Q09472, whole entry, looked up: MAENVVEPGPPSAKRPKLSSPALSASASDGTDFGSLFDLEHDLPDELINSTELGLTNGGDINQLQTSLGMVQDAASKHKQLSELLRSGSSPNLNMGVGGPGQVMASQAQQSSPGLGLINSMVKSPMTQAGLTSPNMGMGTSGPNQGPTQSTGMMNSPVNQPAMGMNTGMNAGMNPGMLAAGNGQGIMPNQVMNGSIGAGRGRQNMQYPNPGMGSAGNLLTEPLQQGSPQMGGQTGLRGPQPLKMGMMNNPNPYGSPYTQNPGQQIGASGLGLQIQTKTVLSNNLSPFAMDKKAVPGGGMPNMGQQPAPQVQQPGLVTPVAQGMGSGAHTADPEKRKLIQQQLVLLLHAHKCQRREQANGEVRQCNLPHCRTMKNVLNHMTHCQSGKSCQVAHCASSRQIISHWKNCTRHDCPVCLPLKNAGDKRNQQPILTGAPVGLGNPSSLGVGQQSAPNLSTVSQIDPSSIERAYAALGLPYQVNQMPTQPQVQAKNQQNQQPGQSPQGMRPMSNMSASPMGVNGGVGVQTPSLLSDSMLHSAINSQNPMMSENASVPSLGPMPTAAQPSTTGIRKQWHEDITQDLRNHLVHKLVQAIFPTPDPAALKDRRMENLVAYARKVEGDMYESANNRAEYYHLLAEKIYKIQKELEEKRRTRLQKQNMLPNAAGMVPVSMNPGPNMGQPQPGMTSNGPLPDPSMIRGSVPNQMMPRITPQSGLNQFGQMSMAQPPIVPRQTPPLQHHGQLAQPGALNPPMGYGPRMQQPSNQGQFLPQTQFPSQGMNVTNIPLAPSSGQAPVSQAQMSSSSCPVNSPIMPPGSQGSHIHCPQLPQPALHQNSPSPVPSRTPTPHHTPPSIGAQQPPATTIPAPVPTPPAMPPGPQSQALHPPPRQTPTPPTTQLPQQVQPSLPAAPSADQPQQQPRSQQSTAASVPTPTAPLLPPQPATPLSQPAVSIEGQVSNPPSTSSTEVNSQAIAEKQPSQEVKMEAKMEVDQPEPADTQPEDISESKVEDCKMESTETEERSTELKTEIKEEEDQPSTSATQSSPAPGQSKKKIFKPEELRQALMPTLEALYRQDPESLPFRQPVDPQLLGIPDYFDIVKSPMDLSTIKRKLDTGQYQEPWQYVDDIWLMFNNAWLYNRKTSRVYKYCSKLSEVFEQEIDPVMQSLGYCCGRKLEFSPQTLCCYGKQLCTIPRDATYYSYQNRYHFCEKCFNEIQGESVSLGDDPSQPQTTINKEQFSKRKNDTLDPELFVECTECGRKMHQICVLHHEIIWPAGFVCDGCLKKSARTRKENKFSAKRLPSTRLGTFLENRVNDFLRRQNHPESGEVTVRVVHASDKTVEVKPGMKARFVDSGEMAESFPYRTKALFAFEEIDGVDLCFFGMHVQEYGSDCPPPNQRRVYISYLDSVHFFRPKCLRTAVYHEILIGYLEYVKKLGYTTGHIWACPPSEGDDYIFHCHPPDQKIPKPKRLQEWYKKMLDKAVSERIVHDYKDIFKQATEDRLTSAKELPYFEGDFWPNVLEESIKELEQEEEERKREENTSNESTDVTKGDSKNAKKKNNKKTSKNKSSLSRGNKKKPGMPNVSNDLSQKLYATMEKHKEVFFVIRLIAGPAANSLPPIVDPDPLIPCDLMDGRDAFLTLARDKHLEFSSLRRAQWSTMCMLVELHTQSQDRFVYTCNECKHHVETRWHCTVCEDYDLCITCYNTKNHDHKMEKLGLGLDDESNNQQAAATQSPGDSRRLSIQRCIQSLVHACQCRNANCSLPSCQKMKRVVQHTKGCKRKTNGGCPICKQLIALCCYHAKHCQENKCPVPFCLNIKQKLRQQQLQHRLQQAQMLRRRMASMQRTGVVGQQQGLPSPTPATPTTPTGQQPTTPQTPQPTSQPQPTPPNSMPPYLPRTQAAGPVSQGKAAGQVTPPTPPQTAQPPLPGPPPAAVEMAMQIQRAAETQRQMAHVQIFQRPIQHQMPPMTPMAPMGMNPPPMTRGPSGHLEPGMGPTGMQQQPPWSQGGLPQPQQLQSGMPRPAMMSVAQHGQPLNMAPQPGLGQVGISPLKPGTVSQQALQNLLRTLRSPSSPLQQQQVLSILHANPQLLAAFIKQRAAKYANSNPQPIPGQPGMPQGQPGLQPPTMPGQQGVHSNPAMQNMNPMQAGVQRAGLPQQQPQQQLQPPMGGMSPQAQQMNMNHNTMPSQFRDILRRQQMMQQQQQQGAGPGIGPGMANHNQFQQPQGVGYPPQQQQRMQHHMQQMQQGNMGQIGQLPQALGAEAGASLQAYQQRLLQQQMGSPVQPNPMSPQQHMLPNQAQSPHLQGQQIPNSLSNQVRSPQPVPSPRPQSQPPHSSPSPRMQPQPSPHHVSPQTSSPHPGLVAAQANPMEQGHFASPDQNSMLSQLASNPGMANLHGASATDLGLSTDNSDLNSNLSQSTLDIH
UniProt Q9UHY7: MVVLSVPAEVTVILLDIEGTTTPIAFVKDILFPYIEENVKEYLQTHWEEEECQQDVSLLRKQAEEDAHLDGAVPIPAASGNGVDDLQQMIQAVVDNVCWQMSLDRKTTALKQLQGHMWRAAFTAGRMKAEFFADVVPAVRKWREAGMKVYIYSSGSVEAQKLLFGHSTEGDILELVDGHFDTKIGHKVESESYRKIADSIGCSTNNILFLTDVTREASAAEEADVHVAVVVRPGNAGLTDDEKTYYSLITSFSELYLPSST
UniProt Q9H4G0, whole entry, looked up: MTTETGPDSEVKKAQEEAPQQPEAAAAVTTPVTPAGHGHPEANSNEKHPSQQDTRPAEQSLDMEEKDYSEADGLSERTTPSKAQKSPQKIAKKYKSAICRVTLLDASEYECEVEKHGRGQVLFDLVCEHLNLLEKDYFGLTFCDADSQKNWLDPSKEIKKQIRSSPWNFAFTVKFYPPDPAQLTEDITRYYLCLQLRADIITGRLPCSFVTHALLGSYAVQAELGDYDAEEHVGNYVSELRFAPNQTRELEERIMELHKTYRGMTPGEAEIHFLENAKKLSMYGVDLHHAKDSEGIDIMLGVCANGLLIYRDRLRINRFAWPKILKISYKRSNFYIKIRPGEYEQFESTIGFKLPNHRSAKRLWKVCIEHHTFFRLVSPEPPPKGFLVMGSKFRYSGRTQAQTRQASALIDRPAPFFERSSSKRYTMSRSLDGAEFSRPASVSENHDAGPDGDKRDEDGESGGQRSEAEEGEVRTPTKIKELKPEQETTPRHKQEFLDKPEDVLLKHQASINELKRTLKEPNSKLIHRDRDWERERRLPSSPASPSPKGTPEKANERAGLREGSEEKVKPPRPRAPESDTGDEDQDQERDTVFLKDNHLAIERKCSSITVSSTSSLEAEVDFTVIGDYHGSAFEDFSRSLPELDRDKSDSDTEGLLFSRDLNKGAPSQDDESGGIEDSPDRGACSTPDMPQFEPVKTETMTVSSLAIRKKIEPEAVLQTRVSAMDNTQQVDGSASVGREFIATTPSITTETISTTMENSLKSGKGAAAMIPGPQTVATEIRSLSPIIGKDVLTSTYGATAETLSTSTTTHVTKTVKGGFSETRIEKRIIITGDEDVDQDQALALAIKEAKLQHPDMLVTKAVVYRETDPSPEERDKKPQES
UniProt Q13542: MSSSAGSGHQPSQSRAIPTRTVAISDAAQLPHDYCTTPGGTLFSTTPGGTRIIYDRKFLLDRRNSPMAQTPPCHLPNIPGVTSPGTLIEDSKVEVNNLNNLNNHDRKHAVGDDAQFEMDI
UniProt O94919: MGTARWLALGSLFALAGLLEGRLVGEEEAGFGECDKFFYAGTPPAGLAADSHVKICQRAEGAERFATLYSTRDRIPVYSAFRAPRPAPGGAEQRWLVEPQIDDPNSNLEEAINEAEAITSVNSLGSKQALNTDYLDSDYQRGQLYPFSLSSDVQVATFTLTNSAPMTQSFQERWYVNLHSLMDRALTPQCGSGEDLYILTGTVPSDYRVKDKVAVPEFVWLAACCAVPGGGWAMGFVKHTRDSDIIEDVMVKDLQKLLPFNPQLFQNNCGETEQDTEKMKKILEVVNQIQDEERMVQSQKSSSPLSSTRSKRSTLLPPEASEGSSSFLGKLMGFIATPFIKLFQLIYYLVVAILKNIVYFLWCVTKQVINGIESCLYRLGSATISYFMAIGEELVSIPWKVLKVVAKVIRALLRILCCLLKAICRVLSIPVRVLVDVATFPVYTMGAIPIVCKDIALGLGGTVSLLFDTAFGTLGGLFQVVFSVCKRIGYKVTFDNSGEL
UniProt Q6ZTU2, whole entry, looked up: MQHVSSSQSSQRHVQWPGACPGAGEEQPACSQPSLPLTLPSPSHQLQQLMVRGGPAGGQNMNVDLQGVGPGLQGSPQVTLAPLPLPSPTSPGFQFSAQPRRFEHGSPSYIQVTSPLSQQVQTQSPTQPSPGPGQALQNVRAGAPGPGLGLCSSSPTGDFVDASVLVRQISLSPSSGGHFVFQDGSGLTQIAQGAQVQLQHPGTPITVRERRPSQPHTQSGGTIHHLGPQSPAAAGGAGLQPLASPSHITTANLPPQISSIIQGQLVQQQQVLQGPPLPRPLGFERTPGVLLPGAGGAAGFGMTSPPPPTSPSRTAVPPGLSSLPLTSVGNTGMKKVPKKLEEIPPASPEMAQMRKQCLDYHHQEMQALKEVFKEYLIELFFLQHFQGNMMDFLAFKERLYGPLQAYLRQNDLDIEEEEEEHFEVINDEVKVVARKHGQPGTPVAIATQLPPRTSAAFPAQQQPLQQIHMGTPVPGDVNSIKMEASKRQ
UniProt Q14232, whole entry, looked up: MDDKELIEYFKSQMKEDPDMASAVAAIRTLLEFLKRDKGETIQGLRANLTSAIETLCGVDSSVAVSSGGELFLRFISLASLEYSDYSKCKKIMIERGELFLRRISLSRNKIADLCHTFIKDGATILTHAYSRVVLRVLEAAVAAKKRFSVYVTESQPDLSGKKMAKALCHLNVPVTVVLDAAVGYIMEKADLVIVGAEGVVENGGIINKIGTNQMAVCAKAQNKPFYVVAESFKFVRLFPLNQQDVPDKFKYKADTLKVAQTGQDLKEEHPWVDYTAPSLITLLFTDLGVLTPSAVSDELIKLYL
UniProt O43768: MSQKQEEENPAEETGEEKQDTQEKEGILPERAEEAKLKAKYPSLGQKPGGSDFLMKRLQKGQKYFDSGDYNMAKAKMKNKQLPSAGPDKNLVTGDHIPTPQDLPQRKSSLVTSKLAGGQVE

What all share (test): log2 fold change, soluble protein after heating vs DMSO (PISA); higher = thermal stabilisation; K562 lysate, 10 uM; active = over 0.2 and 3.5 SD of the protein, either way, in both replicates (recomputed)
Compound in experiment [1]: NCC(=O)Nc1ccc(-n2nc(C(F)(F)F)cc2-c2ccc3c(ccc4ccccc43)c2)cc1
Put shortly: (§1)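 Log-two fold change in thermal stability relative to solvent controls is reported from duplicates. For each sample, crude K562 extract from dounce-homogenised pellets in PBS pH 7.4 with 1 mM MgCl2, at 1 mg/mL protein, was treated with 10 μM compound for 30 min. Aliquots heated for 3 min across 48°C-58°C were pooled, brought to 0.5% NP-40 at 4°C and cleared at 21,000xg for 90 min. The supernatant was quantified by TMTpro 16plex LC-MS/MS with channel sums equalised.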

Compound in a further experiment: O=C(CCCCCCC(=O)Nc1ccccc1)NO [vorinostat]
In a few lines: as §1

Compound in another experiment: O=C(O)c1ccc2c(c1)nc(Nc1cccc(Cl)c1)c1ccncc12 [silmitasertib]
Put shortly: as §1

Compound in experiment [2]: O=C1NC(=O)C(c2cnc3ccccn23)=C1c1cn2c3c(cc(F)cc13)CN(C(=O)N1CCCCC1)CC2
In a few lines: as §1

Compound in another experiment: c1cn2cc(-c3ccc4cn[nH]c4c3)nc(Nc3ccc(N4CCOCC4)cc3)c2n1 [entospletinib]
In a few lines: as §1

This is one part of the list.

ELOVL1 (UniProt Q9BW60): the log2 fold change was inactive: -0.016 in experiment [1]; inactive: 0.202 with vorinostat; inactive: 0.063 with silmitasertib; inactive: 0.015 in experiment [2]; inactive: -0.114 with entospletinib.

Regarding EP300 (UniProt Q09472), the log2 fold change in experiment [1] was inactive: 0.018; with vorinostat it was active: -0.338; with silmitasertib, inactive: 0.06; in experiment [2], inactive: 0.015; with entospletinib, inactive: -0.005.

Consider ENOPH1 (UniProt Q9UHY7), for which the log2 fold change in experiment [1] was inactive: 0.036; with vorinostat it was inactive: 0.131; with silmitasertib, inactive: -0.013; in experiment [2] it was inactive: -0.006; in the experiment with entospletinib it was inactive: -0.006.

On to EPB41L1 (UniProt Q9H4G0), for which the log2 fold change in experiment [1] was inactive: 0.044; with vorinostat, inactive: 0.028; with silmitasertib it was inactive: 0.011; in experiment [2], inactive: 0.024; with entospletinib, inactive: -0.043.

Regarding EIF4EBP2 (UniProt Q13542), the log2 fold change in experiment [1] was inactive: -0.16; with vorinostat it was inactive: 0.15; with silmitasertib, inactive: -0.067; in experiment [2], inactive: 0.061; with entospletinib, inactive: -0.318.

Consider ENDOD1 (UniProt O94919), for which the log2 fold change is inactive: -0.046 in experiment [1]; inactive: 0.136 with vorinostat; inactive: -0.013 with silmitasertib; inactive: -0.031 in experiment [2]; inactive: -0.004 with entospletinib.

With EP400P1 isoform 6 (UniProt Q6ZTU2), the log2 fold change in experiment [1] was inactive: 0.168; with vorinostat, inactive: 0.278; with silmitasertib, inactive: -0.03; in experiment [2], inactive: 0.028; in the experiment with entospletinib it was inactive: 0.011.

On to EIF2B1 (UniProt Q14232), for which the log2 fold change in experiment [1] was inactive: -0.006; with vorinostat, inactive: 0.076; with silmitasertib, inactive: -0.025; in experiment [2] it was inactive: 0.004; with entospletinib, inactive: 0.018.

For the target ENSA isoform 3 (UniProt O43768), the log2 fold change was inactive: -0.029 in experiment [1]; inactive: 0.144 in the experiment with vorinostat; inactive: -0.019 with silmitasertib; inactive: 0.003 in experiment [2]; inactive: -0.014 in the experiment with entospletinib.
